These results are taken from publication doi:10.1101/102285.

The chains behind the UniProt entries cited, without tags or fusion partners.
UniProt Q8IWV8: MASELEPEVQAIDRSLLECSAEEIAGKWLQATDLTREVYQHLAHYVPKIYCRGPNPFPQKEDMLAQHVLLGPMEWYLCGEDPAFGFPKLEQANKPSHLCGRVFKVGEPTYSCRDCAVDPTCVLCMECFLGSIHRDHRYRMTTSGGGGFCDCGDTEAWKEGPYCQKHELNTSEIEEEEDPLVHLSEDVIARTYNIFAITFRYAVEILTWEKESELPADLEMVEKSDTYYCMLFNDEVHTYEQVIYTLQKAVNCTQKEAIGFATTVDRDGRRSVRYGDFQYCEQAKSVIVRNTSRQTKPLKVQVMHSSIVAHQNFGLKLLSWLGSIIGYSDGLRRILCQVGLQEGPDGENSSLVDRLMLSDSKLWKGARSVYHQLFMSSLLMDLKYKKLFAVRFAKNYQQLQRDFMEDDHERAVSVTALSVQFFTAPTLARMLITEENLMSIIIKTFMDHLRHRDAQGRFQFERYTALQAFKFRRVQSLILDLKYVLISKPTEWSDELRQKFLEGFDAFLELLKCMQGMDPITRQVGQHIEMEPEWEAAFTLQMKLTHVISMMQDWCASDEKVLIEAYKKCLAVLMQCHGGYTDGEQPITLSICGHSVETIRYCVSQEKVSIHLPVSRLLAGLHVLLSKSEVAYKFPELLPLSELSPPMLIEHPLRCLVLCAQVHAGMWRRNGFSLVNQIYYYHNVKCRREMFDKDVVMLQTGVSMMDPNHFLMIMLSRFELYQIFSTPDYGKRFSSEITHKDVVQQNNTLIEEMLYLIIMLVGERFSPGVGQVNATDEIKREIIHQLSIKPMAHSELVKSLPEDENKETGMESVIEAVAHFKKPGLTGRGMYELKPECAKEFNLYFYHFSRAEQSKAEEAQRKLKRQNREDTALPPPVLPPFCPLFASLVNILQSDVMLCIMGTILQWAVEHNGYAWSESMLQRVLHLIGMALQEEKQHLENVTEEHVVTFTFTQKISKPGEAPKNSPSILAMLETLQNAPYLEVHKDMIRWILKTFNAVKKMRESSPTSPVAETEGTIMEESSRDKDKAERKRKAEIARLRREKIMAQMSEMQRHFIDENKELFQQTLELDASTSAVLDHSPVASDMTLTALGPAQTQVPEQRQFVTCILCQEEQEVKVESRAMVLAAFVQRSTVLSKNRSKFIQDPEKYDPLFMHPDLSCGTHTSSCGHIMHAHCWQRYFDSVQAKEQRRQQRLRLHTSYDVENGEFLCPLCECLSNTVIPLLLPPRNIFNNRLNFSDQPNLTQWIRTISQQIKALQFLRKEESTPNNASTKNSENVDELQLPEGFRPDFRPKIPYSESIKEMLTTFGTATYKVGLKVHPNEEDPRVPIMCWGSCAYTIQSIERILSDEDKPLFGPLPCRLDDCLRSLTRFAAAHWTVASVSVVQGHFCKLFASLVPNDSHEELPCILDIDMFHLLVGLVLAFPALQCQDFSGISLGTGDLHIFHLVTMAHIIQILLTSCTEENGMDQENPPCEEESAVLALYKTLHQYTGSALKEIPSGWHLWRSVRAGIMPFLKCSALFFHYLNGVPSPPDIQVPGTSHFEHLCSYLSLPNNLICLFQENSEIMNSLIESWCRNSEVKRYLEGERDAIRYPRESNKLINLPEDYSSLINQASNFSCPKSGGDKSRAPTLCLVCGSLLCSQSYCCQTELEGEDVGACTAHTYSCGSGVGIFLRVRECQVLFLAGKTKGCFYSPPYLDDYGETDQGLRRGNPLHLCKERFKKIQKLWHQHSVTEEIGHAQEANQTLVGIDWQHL

Results are given in words; binding and its absence hold for the method and conditions named. Binding seen in cells or lysates may run through a third protein. A yes stands for co-enrichment or nearness to the bait. Other partners may have been found. Tags and fused reporters may be left off the sequences shown.

In this assay the target is T1, TEX19.1-YFP (mouse) (UniProt Q99MV2).
T1 sequence: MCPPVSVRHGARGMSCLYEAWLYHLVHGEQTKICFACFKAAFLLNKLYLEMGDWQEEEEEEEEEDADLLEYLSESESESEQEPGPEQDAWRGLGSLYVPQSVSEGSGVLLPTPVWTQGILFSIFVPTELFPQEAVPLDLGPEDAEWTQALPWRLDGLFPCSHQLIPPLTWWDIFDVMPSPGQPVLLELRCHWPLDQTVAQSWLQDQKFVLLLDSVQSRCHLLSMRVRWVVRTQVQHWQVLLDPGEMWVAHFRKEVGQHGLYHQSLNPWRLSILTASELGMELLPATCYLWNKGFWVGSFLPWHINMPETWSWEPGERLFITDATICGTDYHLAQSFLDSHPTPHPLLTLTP
Put plainly: affinity purification with mass spectrometry.

For “E3 ubiquitin ligase UBR2 (endogenous) (from UniProt Q8IWV8 1-1755) (enzyme)”, the binding result was “binds”.
